## Library screen at single concentrations

Sequences of proteins named here, by UniProt entry; tags and fusion partners are left off. Residues count along the entry.
UniProt P9WPC5, whole entry: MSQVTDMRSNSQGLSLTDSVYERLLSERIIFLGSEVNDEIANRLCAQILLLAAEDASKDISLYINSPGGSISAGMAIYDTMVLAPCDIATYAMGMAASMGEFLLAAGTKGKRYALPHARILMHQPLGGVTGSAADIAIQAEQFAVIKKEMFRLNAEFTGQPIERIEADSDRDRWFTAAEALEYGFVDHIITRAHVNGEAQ
UniProt P9WPC3, whole entry partner: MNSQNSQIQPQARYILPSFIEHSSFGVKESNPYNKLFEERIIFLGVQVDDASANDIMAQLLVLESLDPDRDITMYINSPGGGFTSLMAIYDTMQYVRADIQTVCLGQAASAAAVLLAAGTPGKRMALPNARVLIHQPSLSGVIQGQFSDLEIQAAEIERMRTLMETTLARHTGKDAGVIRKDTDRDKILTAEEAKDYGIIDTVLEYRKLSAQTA
UniProt P9WNZ1, whole entry: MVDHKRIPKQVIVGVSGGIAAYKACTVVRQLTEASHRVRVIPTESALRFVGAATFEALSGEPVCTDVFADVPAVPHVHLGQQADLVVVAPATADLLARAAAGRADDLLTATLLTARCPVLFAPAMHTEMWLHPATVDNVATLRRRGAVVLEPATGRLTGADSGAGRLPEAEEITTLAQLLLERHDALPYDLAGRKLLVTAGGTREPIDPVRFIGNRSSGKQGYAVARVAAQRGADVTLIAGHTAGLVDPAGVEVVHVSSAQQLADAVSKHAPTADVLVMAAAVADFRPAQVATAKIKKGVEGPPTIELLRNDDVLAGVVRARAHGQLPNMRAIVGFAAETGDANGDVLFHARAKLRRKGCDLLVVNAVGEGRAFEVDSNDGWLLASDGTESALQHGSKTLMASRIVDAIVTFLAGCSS
UniProt A4I591, 1-473: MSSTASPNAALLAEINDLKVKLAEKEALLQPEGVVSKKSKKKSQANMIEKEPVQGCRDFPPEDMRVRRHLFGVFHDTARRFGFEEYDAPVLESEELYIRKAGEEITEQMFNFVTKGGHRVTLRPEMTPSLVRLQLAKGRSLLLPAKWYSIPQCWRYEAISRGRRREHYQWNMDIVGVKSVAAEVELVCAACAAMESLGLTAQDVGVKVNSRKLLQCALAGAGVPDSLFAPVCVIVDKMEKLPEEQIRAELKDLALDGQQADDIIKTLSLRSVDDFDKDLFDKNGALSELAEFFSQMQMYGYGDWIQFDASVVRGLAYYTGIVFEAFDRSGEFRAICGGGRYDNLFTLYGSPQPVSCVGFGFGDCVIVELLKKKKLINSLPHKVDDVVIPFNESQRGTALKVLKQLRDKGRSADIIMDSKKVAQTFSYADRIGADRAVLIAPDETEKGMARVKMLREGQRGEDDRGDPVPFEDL

From ChEMBL document CHEMBL3988442, “University of Dundee, Small-Polar-MMV Screening Library” (2021).

ClpP1P2: 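ClpP1P2, Mycobacterium tuberculosis (UniProt P9WPC5 and UniProt P9WPC3). Protease assay of ClpP1P2, read by the AMC dye that it sets free. Tested at 50 µM. Direction is inferred from only a few compounds that gave an IC50; most scored high, so higher reads as stronger inhibition. Most other retested compounds had strongly negative values. About 69,000 compounds were tested under these conditions; 0.015% (about 10) showed 50% or more at least once.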
CoaBC: 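Enzyme assay of CoaBC with a phosphate dye (Biomol Green) read at 650 nm. Target: Coenzyme A biosynthesis protein CoaBC, Mycobacterium tuberculosis (UniProt P9WNZ1). Compounds at 30 µM. Higher reads as stronger inhibition, judged from the few compounds that gave an IC50. Most strong results did not repeat in a second test. Of about 67,000 compounds tested this way, about 40 (0.06%) reached 50% or more in at least one test.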
Leishmania in macrophages: 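Cell assay of Leishmania donovani living inside macrophages; the read-out is not stated. Tested at 30 µM. The record gives no direction; compounds that gave an IC50 in retests scored well above the rest, so higher reads as stronger inhibition. About 69,000 compounds were tested under these conditions; 1.5% (about 1,000) showed 50% or more at least once.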
LiHisRS: 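Enzyme assay of histidyl-tRNA synthetase; the read-out is not stated. Target: Histidine-tRNA ligase, Leishmania infantum (UniProt A4I591). Compounds at 30 µM. Direction is inferred from retests: higher values go with stronger inhibition. The assay is labelled LdHisRS but filed under L. infantum. Size under these conditions: about 69,000 compounds, about 410 of them at 50% or above in at least one test.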

Values are the deposited “Percent Effect”, in %. How 0% and 100% were set is not recorded. Most values in the screen are low, and negative values occur. The compounds are a random part of those screened. A dash means the value is not listed here; it may have been measured.

With c1cnc(NCc2cncc3c2CCN(Cc2cccnc2)C3)nc1 the screen gave ClpP1P2: -5.485%; CoaBC: 3.807%; LiHisRS: 2.941%. CS(=O)(=O)N1CCN(C(=O)CCn2cccn2)CC1 gave ClpP1P2: -7.598%; CoaBC: 5.853%; Leishmania in macrophages: -16.94%; LiHisRS: 5.505%. COc1cc(N2CCC3(CCCN(Cc4ccccn4)C3)C2)ncn1 (centres undefined) read ClpP1P2: -1.699%; CoaBC: 1.733%; LiHisRS: 6.306%. With CN1CCN(C)C2(CCN(Cc3ccc(C4CCCCO4)o3)CC2)C1 (centres undefined) the screen gave ClpP1P2: 3.248%; CoaBC: -2.893%; Leishmania in macrophages: 9.373%; LiHisRS: 4%. Cc1cc(C)n(CC2CCCN2C(=O)CCNc2ncccn2)n1 (centres undefined) gave ClpP1P2: -15.98%; CoaBC: 8.492%; Leishmania in macrophages: 7.467%; LiHisRS: 3.571%.

With Cc1nc(CN2CCO[C@@H]3CNCC[C@@H]3C2)cs1 the screen gave ClpP1P2: 10.81%; CoaBC: -33.19%; LiHisRS: 12.73%. With CC(=O)Nc1ccc(Oc2ccc(CN3CCCC3)cc2F)cc1 the screen gave ClpP1P2: -8.661%; CoaBC: 9.504%; Leishmania in macrophages: 20.28%; LiHisRS: 8%. Result for CCOC1COC2(CCN(c3cccc(C)n3)CC2)C1.O=C(O)C(F)(F)F (centres undefined) was Leishmania in macrophages: -4.126%. N#Cc1ccc(NCc2cccc(COC3CCOCC3)c2)nc1 read ClpP1P2: -1.072%; CoaBC: -1.927%; Leishmania in macrophages: 15.18%; LiHisRS: 12.07%. Result for CCOCC1CN(C(=O)Cc2ccccn2)Cc2cnn(C)c21.O=C(O)C(F)(F)F.O=C(O)C(F)(F)F (centres undefined) was Leishmania in macrophages: -7.588%.

Result for COc1ccccc1C(=O)N1CC(=O)N(Cc2ccco2)CC(O)C1 (centres undefined) was ClpP1P2: 2.933%; CoaBC: 3.874%; Leishmania in macrophages: -7.146%; LiHisRS: 16.33%. COCCNC(=O)C(C)n1nc(-c2ccco2)cc(N)c1=O (centres undefined) gave ClpP1P2: -21.28%; CoaBC: 8.904%; Leishmania in macrophages: -27.74%; LiHisRS: 8.054%. Result for Cc1noc(C)c1C(=O)N1Cc2ncn(C)c2C(COCC(C)C)C1.O=C(O)C(F)(F)F (centres undefined) was Leishmania in macrophages: 11.15%. Result for CCn1cnnc1CNC(=O)c1cc(Cl)ccc1O was ClpP1P2: 10.03%; CoaBC: 0.7833%; Leishmania in macrophages: -9.343%; LiHisRS: 2.703%. CC(C)C(=O)N1CC2(CCN(CC(C)(C)C)CC2)C1.O=C(O)C(F)(F)F gave Leishmania in macrophages: -19.13%.

CCC(CC)C(=O)N1CCN(C)c2ncccc2C1 read ClpP1P2: -9.808%; CoaBC: 2.121%; Leishmania in macrophages: -8.089%; LiHisRS: 9.589%.

For reference, 2 entries once more:

| Compound | ClpP1P2 | CoaBC | Leishmania in macrophages | LiHisRS |
|---|---|---|---|---|
| `Cc1noc(C)c1C(=O)N1Cc2ncn(C)c2C(COCC(C)C)C1.O=C(O)C(F)(F)F` (centres undefined) | - | - | 11.15 | - |
| `Cc1nc(CN2CCO[C@@H]3CNCC[C@@H]3C2)cs1` | 10.81 | -33.19 | - | 12.73 |